# Screening data, single-dose tests

Protein sequences, listed by entry. Tags and fused reporters are not part of them.
UniProt I6X8D2, whole entry: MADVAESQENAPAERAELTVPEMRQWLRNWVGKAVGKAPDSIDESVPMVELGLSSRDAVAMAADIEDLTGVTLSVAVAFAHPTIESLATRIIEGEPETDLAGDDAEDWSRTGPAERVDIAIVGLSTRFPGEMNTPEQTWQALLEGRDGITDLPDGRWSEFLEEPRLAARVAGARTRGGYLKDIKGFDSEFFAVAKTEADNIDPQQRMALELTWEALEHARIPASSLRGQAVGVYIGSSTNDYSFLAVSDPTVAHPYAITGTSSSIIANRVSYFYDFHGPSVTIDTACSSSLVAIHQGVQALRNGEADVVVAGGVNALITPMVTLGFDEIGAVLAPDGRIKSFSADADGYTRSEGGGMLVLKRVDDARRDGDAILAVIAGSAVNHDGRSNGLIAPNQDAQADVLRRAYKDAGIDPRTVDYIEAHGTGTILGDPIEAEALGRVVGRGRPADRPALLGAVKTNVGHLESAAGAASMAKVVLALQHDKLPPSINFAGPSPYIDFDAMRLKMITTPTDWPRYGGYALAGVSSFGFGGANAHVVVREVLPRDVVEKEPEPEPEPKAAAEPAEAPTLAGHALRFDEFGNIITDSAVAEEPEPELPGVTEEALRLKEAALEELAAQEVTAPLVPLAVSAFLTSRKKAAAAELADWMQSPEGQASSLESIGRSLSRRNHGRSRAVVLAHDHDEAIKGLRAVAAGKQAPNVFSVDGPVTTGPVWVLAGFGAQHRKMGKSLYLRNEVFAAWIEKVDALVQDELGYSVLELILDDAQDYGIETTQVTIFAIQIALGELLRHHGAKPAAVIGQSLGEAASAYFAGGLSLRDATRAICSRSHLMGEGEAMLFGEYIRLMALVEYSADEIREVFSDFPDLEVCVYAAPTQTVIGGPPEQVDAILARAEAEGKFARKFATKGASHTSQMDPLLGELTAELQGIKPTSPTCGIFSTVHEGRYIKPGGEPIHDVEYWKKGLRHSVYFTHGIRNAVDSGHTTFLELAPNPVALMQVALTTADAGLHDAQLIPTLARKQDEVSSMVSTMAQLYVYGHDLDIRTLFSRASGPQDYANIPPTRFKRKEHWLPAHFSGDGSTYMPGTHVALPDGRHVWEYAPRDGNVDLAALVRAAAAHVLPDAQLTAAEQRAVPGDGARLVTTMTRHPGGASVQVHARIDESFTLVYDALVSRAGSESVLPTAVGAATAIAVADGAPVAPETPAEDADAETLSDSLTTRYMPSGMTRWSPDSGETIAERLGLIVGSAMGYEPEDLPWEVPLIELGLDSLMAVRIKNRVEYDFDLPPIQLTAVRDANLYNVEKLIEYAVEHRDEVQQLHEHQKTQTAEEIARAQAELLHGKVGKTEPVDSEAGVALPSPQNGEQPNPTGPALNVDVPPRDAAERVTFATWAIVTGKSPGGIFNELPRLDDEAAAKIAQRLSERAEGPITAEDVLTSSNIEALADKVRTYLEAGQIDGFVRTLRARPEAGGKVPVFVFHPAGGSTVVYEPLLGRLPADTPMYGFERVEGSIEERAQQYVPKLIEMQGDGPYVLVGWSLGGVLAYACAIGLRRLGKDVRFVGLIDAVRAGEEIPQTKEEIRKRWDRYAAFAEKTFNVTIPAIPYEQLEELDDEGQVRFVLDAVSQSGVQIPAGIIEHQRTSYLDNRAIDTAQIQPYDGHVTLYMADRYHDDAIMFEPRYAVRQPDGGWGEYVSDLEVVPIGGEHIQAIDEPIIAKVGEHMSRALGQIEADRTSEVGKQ
UniProt P9WPC5, whole entry: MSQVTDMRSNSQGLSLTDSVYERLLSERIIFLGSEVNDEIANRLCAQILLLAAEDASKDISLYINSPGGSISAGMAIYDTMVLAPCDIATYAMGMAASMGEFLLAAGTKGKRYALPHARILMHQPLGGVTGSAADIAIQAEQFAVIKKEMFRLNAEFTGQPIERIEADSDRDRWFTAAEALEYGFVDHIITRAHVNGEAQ
UniProt P9WPC3, whole entry partner: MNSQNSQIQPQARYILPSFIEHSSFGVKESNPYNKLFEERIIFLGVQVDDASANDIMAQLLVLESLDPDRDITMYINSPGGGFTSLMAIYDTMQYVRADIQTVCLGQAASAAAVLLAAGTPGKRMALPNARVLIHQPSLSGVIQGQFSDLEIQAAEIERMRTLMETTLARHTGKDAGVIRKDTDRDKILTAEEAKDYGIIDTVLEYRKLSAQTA

Measurements from “University of Dundee, Small-Polar-MMV Screening Library” (2021), ChEMBL document CHEMBL3988442.

Values are the deposited “Percent Effect”, in %. The controls that fix the scale are not given in the record; negative values are as filed. The compounds are a random part of those screened. Two or more numbers in one place are separate tests of the same structure; such repeats can differ widely. A dash means the value is not listed here; it may have been measured.

A: 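Cell assay of Leishmania donovani living inside macrophages; the read-out is not stated. Compounds at 30 µM. The record gives no direction; compounds that gave an IC50 in retests scored well above the rest, so higher reads as stronger inhibition. About 69,000 compounds were tested under these conditions; 1.5% (about 1,000) showed 50% or more at least once.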
B: 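Polyketide synthase Pks13, Mycobacterium tuberculosis (UniProt I6X8D2). Enzyme assay of the thioesterase domain of polyketide synthase 13; the read-out is not stated. Tested at 30 µM. The record gives no direction; the compounds picked for IC50 retests had high values, so higher reads as stronger inhibition. About 67,000 compounds were tested under these conditions; 0.46% (about 300) showed 50% or more at least once.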
C: 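ClpP1P2, Mycobacterium tuberculosis (UniProt P9WPC5 and UniProt P9WPC3). Protease assay of ClpP1P2, read by the AMC dye that it sets free. Tested at 50 µM. Higher reads as stronger inhibition, judged from the few compounds that gave an IC50. Most other retested compounds had strongly negative values. Of about 69,000 compounds tested this way, about 10 (0.015%) reached 50% or more in at least one test.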
D: 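Whole-parasite assay of Trypanosoma brucei over 72 hours; the read-out is not stated. Tested at 30 µM. The record gives no direction; compounds that gave an IC50 in retests scored well above the rest, so higher reads as stronger inhibition. Values scatter widely below zero; nearly all retest evidence comes from the higher of the two concentrations used. Size under these conditions: about 64,000 compounds, about 940 of them at 50% or above in at least one test.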

compound	A	B	C	D
CSCCC(NC(=O)c1nc(SC)ncc1Cl)C(=O)O (stereo not given)	20.08	27.77	7.181	-3.752
Cc1ccc(CN2Cc3c(C(=O)N(C)C)nn(C)c3C2)s1.O=C(O)C(F)(F)F	33.46	-	-	14.05
COc1ccc(CC2(CO)CCN(c3cc(C(N)=O)ccn3)CC2)cc1	-18.87	-8.853	-15.84	-35.25
Cc1cc(C(=O)NCC(c2ccccc2Cl)N2CCOCC2)on1 (stereo not given)	36.73	-92.59	-2.315	-26.7
Cc1cccc(N2CCN(C(=O)Cc3ccccc3O)C(C)C2)n1 (stereo not given)	6.035 & 33.48	2.436	-7.668	-15.17
c1ccc(-c2cc(CNCCN3CCCC3)c3nnnn3c2)cc1	9.839 & 45.98	7.981	4.171	99.79
COCc1cc(N2C[C@@H](C)[C@](O)(C3CC3)C2)ncn1	6.746	-33.63	6.716	-1.976
Cc1[nH]c2ccc(Cl)cc2c1CCNc1ncnc2c1CCNC2	54.3	-30.26	8.754	-
COC(=O)[C@@H]1Cc2c[nH]c3cccc(c23)[C@H](CC(C)C)N1	32.97	-27.26	-5.758	0.4079
Cc1ccn2ncc(C(=O)N3CCCC(n4ccnc4C)C3)c2n1 (stereo not given)	-8.396	-9.817	-8.586	-8.631
C[C@H](NS(C)(=O)=O)C(=O)NCc1cc(-c2ccco2)n(CC(F)(F)F)n1	10.5 & 18.93	-15.21	4.064	-2.754
NC(=O)CN1C(=O)CO[C@H]2CN(Cc3ccccc3)C[C@H]21	-	0.5008	-17.83	-
Cc1cc2[nH]c(CN3CCOC(C(F)(F)F)C3)cc(=O)n2n1 (stereo not given)	-4.207	-13.14	8.07	-33.54
Cc1ccccc1CSc1nc(N)cc(N2CCC(CC(N)=O)CC2)n1	4.228	-31.15	2.899	0.7065
COCCCN1C(=O)CC[C@H]2CN(c3ccc(C(N)=O)cn3)CC[C@H]21	-	9.718	-20.32	-
Cc1csc(N2CCCN(Cc3ccn(C)c(=O)c3)CC2)n1	27.76	-33.1	0.1778	8.516
OCCN1CCCCC1c1cc[nH]n1 (stereo not given)	-7.902	11.95	4.895	-
CNC1CCN(C2CCN(c3ccc(-c4ccco4)cc3)CC2)CC1	-92.44	-1.523	16.83	100.1
Cc1c(CN(C)c2cc(C3CCCNC3)ncn2)[nH]c2ccccc12 (stereo not given)	16.72	-21.62	-11.75	-1.679
CC(C)NC(=O)CN(C)C1CCN(c2ccc(C#N)cn2)CC1	6.659	-14.69	-7.786	21.87
Cc1ccccc1CCC1CCCN(C(=O)Cc2cc(=O)[nH]c(N)n2)C1 (stereo not given)	-48.51	-62.67	3.458	-44.67
Cc1ccc(-c2noc([C@@H]3C[C@H](NC(=O)NC(C)C)CN3C)n2)cc1	9.945	-26.76	-9.272	-9.009
CS(=O)(=O)N1CCOCC12CCN(Cc1ccc(F)cc1)CC2.O=C(O)C(F)(F)F	14.17	-	-	-42.12
COc1ccc(Oc2ncccc2NC(=O)N2CCOC(C)C2)cc1 (stereo not given)	20.2	-20.52	6.391	-14.54
Cc1cnn(CC2CCCN2Cc2ncc(-c3ccccc3)o2)c1 (stereo not given)	24.46	-1.354	-5.593	-26.58
Cc1nc(CN2CCC23CCN(Cc2ccoc2)CC3)cs1	63.43	-19.11	-19.19	-60.33
CCCc1nnsc1C(=O)N1CCN(CC(O)c2ccco2)CC1 (stereo not given)	-	-6.534	-5.162	-
C[C@@H]1CN(C2(C(=O)N3CCCCCC3)Cc3ccccc3C2)C[C@H](C)O1	34.63	-23.12	-7.735	31.11
CCCOc1cccc(-c2nc3c([nH]2)CCNC3)c1	25.72	-7.494	-1.274	-6.778
Cc1cnc2c(S(=O)(=O)NCC3CCS(=O)(=O)C3)cccc2c1 (stereo not given)	-5.204	-18.53	6.327	-4.741
NC(=O)CN(Cc1ccc(Br)cc1)C(=O)c1ccncc1	17.27	-30.79	-0.06423	-0.2083
C[C@@H]1CN(Cc2ccccc2F)CC(C(N)=O)O1 (stereo not given in full)	18.58	-28.39	-0.9522	-17.38
Cc1ccsc1CN(Cc1cccnc1)C1CC(C)(C)NC(C)(C)C1.O=C(O)CC(O)(CC(=O)O)C(=O)O	28.79 & 46.25	-	-	61.32
Cc1noc([C@H]2COC[C@H]3CN(C(=O)Cc4ccccc4F)C[C@H]32)n1	-	11.42	-4.584	-
CSCC(C)CNC(=O)N1CCSC(C)(C)C1 (stereo not given)	13	-2.673	-8.328	3.661
NC1CCCCN(Cc2cc(C3CCCCC3)no2)C1 (stereo not given)	-8.046	-30.26	-10.7	19.73
CN1CCC(c2cncc(C(=O)NCc3ccc(F)cc3)n2)CC1	16.1	5.75	-14.54	-
O=c1[nH]cc(N2CCOCC2)c(=O)[nH]1	-12.54	-5.725	2.006	-15.47
O=C(NCCOCCO)[C@@]12CNC[C@@H]1CN(C1CCCC1)C2	-	-34.09	-3.778	-
CCOCC1c2c(cnn2CC2CC2)CCN1Cc1nccs1.O=C(O)C(F)(F)F.O=C(O)C(F)(F)F (stereo not given)	2.077	-	-	-3.24
Cc1cc(CN(C)C(=O)c2ccc(F)c(C(F)(F)F)c2)no1	26.95	-11.96	-18.95	5.601
Cc1ccnn1CCC(=O)N(Cc1ccsc1)CC(C)C	3.528	-29.59	-15.86	5.172
Cl.O=C(NCc1ccc(Cl)cc1)C1=NOC2(CCNC2)C1 (stereo not given)	25.3	-	-	4.958
COc1cccc(CN2CCC3(CCN(c4ncc(F)cn4)CC3)C2)c1.O=C(O)C(F)(F)F	-53.67 & 2.508	-	-	15.14
CCc1nc2n(n1)CC(NCC(=O)Nc1cc(C)nn1C)CC2 (stereo not given)	25.74	-15.03	6.363	-9.137
Cn1cnnc1C1CCN(C(=O)Cc2ccc3c(c2)OCCO3)CC1	-12.17	-19.95	6.195	-1.099
Cn1cc(C(=O)N2CCCCC2CCc2ccccc2)cn1 (stereo not given)	22.71	-13.31	-1.088	-38.86
CN(Cc1nccn1CC(F)(F)F)C(=O)c1ccc2c(c1)OCO2	5.018	-16.97	-1.709	-13.78
Cc1nc(-c2ccccc2)c(C(=O)N2CCC3(CC(=O)NC3=O)C2)s1 (stereo not given)	8.679	-5.871	-8.871	-14.37
Cc1ccc(O)c(C(=O)N2C[C@@H](C(=O)O)[C@H](c3ccccc3)C2)c1	17.94	10.7	-6.438	-47.88
Cc1cccc(N(CCC(N)=O)CC(=O)Nc2ccccc2)c1	-3.873	-6.615	-5.617	14.82
COCCN1CCOCC12CCN(C(=O)c1cccnc1)CC2	-	-14.98	7	-
OCCn1nccc1C1CCN(CCOc2ccccc2Cl)CC1	-9.656	-9.966	-22.75	8.604
c1cnnc(N2CCCC2CNCCc2cccs2)c1 (stereo not given)	18.55	-20.16	-8.562	9.251
COCC(=O)NCc1cc(=O)n2c(n1)CN(CC1CC1)CCC2.O=C(O)C(F)(F)F	0.4082	-	-	-46.44
O=C(Nc1ccc(F)c(F)c1)N1CCC2(CCC(=O)N(C3CC3)C2)CC1	19.75	-13.65	10.55	-7.699
Cc1nnc(CN(C)CC(=O)N2CCCC(C)CC2)n1C (stereo not given)	15.99	-11.9	-7.308	-51.55
Cc1cc2c(c(-c3cnccn3)c1)OC(CN)C2 (stereo not given)	26.74	-2.904	-3.834	-39.74
Cc1nc(CN2CCO[C@@H]3CN(C(=O)NC(C)C)CC[C@@H]3C2)cs1	-	-8.751	-1.565	-
CCn1cnnc1CNC(=O)N1CCC(Cc2cccnc2)CC1	-11.44	-16.92	1.243	-64.61
CC(=O)N1CCCN(C(=O)CCc2c(C)noc2C)CC1	-7.533	-10.75	15.25	7.842
COC1CCN(CCNC(=O)NCC(C)c2cccc(C)c2)CC1 (stereo not given)	-10.13	-1.373	-5.003	-13.34
Cc1nnc2n1CCN(C(=O)c1cc(Cl)c[nH]1)C2	15.44	-6.254	4.958	-6.305
OCCN1CCCCC1C1OCCO1 (stereo not given)	-25.99	-2.179	16.59	-45.4
Cc1nc(C2CCCN2C(=O)CCCn2cncn2)no1 (stereo not given)	5.239	-13.98	12.48	-

Once more, the final 7:

| compound | A | B | C | D |
|---|---|---|---|---|
| `Cc1nc(CN2CCO[C@@H]3CN(C(=O)NC(C)C)CC[C@@H]3C2)cs1` | - | -8.751 | -1.565 | - |
| `CCn1cnnc1CNC(=O)N1CCC(Cc2cccnc2)CC1` | -11.44 | -16.92 | 1.243 | -64.61 |
| `CC(=O)N1CCCN(C(=O)CCc2c(C)noc2C)CC1` | -7.533 | -10.75 | 15.25 | 7.842 |
| `COC1CCN(CCNC(=O)NCC(C)c2cccc(C)c2)CC1` (stereo not given) | -10.13 | -1.373 | -5.003 | -13.34 |
| `Cc1nnc2n1CCN(C(=O)c1cc(Cl)c[nH]1)C2` | 15.44 | -6.254 | 4.958 | -6.305 |
| `OCCN1CCCCC1C1OCCO1` (stereo not given) | -25.99 | -2.179 | 16.59 | -45.4 |
| `Cc1nc(C2CCCN2C(=O)CCCn2cncn2)no1` (stereo not given) | 5.239 | -13.98 | 12.48 | - |